Test results reported in the supplement of paper PMC12819154, “High-throughput peptide-centric local stability assay extends protein–ligand identification to membrane proteins, tissues and bacteria” (Nature Structural & Molecular Biology, 2025).
The other results are listed elsewhere or left out. Most values lie at the level of the controls, where differences are scatter.

Amino acid sequences for entries named in this document (tags omitted). A change or cut given only in a name is not applied to a line headed by its entry.
UniProt Q6IQ22: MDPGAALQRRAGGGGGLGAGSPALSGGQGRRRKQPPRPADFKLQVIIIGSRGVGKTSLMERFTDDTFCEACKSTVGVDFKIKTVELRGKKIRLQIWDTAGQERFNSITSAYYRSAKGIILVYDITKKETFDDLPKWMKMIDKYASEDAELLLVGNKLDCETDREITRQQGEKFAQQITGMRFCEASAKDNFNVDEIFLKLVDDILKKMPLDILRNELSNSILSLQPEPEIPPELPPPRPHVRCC
UniProt Q6IBS0: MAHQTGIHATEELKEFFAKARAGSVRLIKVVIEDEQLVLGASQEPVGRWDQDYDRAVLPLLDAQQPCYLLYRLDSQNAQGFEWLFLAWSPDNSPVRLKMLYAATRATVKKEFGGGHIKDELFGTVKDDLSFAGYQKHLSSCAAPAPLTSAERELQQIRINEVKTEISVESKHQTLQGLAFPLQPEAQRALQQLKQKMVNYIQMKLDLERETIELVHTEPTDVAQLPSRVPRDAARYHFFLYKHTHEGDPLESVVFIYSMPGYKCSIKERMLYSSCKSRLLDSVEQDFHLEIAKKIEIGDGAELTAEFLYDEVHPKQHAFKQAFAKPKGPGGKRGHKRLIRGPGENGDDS
UniProt Q6NS38: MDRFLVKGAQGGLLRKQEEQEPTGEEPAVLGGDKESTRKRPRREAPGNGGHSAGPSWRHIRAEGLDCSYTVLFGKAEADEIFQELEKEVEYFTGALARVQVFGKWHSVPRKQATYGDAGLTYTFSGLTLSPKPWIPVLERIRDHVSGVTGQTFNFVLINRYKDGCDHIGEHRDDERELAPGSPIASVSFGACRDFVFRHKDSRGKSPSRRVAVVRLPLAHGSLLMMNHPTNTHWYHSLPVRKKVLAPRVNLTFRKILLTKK
UniProt Q6QNY0: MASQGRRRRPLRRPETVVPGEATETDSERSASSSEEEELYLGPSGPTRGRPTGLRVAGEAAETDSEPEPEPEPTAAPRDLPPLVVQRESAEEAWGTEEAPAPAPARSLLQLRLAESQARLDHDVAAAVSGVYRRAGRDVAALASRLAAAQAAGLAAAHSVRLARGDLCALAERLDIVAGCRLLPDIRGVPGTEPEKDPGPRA
UniProt Q6PJ69: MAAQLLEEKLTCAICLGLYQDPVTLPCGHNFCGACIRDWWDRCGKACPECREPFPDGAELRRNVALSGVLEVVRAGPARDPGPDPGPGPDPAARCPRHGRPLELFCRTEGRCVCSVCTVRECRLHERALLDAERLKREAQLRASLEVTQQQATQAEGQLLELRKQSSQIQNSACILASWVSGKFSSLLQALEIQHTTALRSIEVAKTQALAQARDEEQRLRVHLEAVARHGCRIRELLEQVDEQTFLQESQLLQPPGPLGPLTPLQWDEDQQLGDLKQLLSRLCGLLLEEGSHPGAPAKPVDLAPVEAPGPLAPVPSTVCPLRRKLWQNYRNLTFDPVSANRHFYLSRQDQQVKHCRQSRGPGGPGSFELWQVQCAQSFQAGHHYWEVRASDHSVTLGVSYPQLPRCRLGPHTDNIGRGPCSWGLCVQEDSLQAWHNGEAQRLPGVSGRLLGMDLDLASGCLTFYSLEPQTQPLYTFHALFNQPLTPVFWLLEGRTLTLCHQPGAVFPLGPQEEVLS
UniProt Q6PFW1: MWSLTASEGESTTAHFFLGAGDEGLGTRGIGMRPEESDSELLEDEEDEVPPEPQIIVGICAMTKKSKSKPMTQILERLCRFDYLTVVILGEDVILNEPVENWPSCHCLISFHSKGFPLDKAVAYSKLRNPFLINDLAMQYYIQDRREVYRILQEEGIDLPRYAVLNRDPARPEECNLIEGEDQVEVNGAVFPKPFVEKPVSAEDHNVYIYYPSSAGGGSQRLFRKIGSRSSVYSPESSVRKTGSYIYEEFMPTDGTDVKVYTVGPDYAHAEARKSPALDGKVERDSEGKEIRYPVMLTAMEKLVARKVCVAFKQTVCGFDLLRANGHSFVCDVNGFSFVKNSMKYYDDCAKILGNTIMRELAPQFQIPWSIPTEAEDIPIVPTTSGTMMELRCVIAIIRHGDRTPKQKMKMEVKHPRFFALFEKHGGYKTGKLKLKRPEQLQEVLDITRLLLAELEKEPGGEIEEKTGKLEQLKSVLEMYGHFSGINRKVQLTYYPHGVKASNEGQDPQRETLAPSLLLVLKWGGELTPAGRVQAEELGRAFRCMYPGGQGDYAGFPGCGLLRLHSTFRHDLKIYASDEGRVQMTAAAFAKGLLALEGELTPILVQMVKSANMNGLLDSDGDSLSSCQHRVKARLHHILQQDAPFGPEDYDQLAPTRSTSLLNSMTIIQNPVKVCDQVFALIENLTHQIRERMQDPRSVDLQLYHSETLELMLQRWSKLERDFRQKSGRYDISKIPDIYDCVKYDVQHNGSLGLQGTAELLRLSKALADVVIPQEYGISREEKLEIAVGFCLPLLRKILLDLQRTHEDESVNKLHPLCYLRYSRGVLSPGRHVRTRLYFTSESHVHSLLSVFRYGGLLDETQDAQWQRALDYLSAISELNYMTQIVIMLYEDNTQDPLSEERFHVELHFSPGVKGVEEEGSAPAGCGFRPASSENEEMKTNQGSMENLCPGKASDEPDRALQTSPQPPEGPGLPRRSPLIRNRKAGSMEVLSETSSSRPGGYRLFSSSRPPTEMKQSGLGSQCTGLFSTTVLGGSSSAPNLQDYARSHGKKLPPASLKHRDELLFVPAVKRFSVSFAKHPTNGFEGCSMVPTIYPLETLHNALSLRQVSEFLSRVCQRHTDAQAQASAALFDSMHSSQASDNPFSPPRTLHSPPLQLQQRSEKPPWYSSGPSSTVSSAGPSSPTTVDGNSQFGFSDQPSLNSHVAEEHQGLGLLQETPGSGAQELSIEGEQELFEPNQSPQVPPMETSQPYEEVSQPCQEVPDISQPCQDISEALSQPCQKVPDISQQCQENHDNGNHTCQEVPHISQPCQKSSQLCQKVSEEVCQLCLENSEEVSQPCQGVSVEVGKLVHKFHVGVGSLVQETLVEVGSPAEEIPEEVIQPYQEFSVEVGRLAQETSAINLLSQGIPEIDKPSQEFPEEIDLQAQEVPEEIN
UniProt Q6P3S6: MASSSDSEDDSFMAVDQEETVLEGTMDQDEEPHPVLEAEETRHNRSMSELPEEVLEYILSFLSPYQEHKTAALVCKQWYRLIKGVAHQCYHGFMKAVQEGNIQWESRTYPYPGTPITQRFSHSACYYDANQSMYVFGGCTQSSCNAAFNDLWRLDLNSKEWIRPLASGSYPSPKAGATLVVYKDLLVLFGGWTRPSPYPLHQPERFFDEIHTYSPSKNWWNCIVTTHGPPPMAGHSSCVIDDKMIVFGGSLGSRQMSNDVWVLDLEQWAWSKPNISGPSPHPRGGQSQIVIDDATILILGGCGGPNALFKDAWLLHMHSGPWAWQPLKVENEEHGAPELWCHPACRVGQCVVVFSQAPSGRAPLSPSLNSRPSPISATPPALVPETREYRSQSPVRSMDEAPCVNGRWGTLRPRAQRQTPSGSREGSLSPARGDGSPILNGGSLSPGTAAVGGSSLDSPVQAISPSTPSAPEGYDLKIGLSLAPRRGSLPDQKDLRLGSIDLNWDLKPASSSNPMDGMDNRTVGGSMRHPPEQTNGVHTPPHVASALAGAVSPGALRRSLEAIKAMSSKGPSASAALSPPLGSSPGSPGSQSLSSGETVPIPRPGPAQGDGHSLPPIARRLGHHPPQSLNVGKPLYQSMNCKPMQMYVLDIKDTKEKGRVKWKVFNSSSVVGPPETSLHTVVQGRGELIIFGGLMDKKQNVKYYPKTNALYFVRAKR
UniProt Q63ZY3: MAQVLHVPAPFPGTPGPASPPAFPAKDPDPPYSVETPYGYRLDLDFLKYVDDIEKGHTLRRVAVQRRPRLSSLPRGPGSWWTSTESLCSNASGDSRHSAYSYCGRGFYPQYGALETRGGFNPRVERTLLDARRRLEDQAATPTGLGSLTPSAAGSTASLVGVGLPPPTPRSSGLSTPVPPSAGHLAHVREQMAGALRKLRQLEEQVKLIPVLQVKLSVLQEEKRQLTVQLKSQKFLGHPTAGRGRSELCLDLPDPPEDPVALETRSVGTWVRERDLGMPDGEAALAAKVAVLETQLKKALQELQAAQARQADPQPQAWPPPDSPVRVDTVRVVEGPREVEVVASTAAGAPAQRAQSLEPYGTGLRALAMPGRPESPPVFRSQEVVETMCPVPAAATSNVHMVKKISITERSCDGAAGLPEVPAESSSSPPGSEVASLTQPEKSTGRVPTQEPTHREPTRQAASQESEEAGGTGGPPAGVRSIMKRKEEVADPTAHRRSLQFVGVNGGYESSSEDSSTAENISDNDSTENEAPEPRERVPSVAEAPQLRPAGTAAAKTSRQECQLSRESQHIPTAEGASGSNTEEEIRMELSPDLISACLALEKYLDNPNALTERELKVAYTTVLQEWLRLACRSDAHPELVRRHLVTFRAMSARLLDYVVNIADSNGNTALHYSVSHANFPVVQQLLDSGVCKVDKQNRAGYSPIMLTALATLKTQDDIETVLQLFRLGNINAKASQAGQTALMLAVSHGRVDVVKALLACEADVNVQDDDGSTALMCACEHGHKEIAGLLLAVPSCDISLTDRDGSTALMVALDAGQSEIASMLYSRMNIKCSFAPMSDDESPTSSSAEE
UniProt Q6NZY4: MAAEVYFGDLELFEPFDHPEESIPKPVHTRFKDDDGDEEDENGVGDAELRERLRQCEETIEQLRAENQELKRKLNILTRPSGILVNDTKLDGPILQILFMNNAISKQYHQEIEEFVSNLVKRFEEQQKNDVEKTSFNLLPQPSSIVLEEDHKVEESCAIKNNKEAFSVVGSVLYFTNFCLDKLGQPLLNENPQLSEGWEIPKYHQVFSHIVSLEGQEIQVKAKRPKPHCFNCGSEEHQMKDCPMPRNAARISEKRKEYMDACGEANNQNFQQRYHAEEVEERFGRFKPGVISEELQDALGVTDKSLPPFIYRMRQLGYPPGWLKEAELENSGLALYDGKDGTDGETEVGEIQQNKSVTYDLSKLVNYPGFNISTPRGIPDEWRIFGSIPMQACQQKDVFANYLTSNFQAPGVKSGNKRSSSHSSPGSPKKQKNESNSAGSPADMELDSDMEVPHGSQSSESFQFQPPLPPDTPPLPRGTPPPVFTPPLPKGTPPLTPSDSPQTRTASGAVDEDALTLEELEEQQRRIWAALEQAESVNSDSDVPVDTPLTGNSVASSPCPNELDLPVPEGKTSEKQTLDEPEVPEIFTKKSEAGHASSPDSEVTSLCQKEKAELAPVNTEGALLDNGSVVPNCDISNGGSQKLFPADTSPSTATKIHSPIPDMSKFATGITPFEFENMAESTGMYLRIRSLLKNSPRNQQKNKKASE
UniProt Q6NXS1: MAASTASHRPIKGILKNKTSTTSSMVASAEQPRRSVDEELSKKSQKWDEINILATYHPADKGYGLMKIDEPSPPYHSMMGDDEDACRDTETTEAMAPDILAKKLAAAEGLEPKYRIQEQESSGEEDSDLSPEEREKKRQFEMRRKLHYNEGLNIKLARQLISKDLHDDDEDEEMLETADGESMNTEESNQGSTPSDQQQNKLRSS
UniProt Q6PCE3: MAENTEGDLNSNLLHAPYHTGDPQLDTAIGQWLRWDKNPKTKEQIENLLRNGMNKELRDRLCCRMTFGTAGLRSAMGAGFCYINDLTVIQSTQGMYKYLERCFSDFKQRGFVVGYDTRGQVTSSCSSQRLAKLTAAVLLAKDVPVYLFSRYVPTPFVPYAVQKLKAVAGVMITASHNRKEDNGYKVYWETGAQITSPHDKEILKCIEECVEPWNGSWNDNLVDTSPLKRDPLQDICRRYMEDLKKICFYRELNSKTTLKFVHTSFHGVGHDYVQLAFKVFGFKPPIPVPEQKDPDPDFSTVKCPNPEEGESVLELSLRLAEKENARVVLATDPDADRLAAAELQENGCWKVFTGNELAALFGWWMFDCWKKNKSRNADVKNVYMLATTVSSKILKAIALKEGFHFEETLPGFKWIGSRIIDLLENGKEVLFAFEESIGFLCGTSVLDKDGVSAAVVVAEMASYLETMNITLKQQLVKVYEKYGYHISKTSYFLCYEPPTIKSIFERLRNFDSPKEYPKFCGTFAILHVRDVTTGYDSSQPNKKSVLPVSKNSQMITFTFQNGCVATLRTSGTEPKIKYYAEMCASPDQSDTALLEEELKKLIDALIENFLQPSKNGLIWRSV
UniProt Q6QEF8, whole entry: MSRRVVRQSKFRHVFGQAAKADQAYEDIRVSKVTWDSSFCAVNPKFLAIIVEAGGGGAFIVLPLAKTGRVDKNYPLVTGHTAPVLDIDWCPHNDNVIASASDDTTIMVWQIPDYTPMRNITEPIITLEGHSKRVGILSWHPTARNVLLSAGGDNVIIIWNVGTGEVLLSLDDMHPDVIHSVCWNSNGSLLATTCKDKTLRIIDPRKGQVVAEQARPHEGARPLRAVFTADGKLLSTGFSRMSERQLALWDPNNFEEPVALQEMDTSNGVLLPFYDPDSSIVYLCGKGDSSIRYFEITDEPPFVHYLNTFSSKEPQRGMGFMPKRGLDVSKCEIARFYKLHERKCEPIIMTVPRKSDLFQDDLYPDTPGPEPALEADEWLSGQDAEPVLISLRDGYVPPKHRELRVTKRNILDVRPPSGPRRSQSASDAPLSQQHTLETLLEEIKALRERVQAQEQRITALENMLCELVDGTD

compound: CN[C@@H]1C[C@H]2O[C@@](C)([C@@H]1OC)n1c3ccccc3c3c4c(c5c6ccccc6n2c5c31)C(=O)NC4 [staurosporine]; assay: log2 fold change of tryptic peptide abundance, ligand vs vehicle (limited proteolysis) (log2 ratio); higher = more trypsin-susceptible (destabilized); conditions: ligand concentration: 20 uM; sample: K562 cleared lysate; digestion: 4 min, 22 C (HT-PELSA RT4min, Orbitrap Astral)

Target | log2 fold change
FIP1L1 (peptide sequence: DHSPTPSVFNSDEER, peptide start residue: 490) (UniProt Q6UN15) | 0.547
RAB12 (peptide sequence: AGGGGGLGAGSPALSGGQGR, peptide start residue: 11) (UniProt Q6IQ22) | -0.221
TWF2 (peptide sequence: TEISVESK, peptide start residue: 164) (UniProt Q6IBS0) | -0.0672
UniProt Q6DD87 (peptide sequence: GFGHGAGLLAHQR, peptide start residue: 288) | 1.38
ALKBH2 (peptide sequence: YKDGCDHIGEHR, peptide start residue: 161) (UniProt Q6NS38) | 0.319
UniProt Q6IQ55 (peptide sequence: SEITQPDRDIPLVR, peptide start residue: 428) | 0.349
BLOC1S3 (peptide sequence: ESAEEAWGTEEAPAPAPAR, peptide start residue: 88) (UniProt Q6QNY0) | -0.0977
ARMC6 (peptide sequence: AFLDNPGILSELCGTLSR, peptide start residue: 285) (UniProt Q6NXE6) | -0.113
TRIM65 (peptide sequence: TEGRCVCSVCTVR, peptide start residue: 108) (UniProt Q6PJ69) | 0.609
TTC37 (peptide sequence: EAVLSCSQALK, peptide start residue: 324) (UniProt Q6PGP7) | -0.608
UniProt Q6PFW1 (peptide sequence: HRDELLFVPAVKR, peptide start residue: 1059) | 0.45
ATF7IP (peptide sequence: SEDMDNVQSK, peptide start residue: 559) (UniProt Q6VMQ6) | 0.572
UniProt Q6NW34 (peptide sequence: VFKEESSEFDVR, peptide start residue: 302) | -0.333
FBXO42 (peptide sequence: RGSLPDQK, peptide start residue: 486) (UniProt Q6P3S6) | 0.168
ARHGAP11A (peptide sequence: EVNGCSGVNR, peptide start residue: 447) (UniProt Q6P4F7) | -0.894
LARP1 (peptide sequence: LEDFRVDPPMGEEGNHKR, peptide start residue: 1021) (UniProt Q6PKG0) | -0.343
UniProt Q6P444 (peptide sequence: FGHHISQSEGQR, peptide start residue: 349) | -0.85
TRMT10B (peptide sequence: LCIDLSMTHYMSK, peptide start residue: 127) (UniProt Q6PF06) | 0.77

Target | log2 fold change
UniProt Q6IAA8 (peptide sequence: LLLDPSSPPTK, peptide start residue: 21) | -0.122
ELP2 (peptide sequence: VLSLCGHEDWIR, peptide start residue: 200) (UniProt Q6IA86) | 0.392
CEP135 (peptide sequence: MTSQDEEAHVMK, peptide start residue: 715) (UniProt Q66GS9) | -0.601
UniProt Q6ICB0 (peptide sequence: LSPIMLGK, peptide start residue: 24) | -0.384
KANK2 (peptide sequence: FLGHPTAGR, peptide start residue: 235) (UniProt Q63ZY3) | 0.436
ZFP1 (peptide sequence: NQTPIEER, peptide start residue: 75) (UniProt Q6P2D0) | -0.102
ZCCHC8 (peptide sequence: LFPADTSPSTATK, peptide start residue: 643) (UniProt Q6NZY4) | -0.112
UniProt Q6NXS1 (peptide sequence: KLAAAEGLEPK, peptide start residue: 103) | 0.284
PGM2L1 (peptide sequence: TSGTEPKIK, peptide start residue: 559) (UniProt Q6PCE3) | 0.307
UniProt Q6NSI8 (peptide sequence: KFTRQPK, peptide start residue: 589) | 0.204
ZNF770 (peptide sequence: IQQCVVANKLPR, peptide start residue: 12) (UniProt Q6IQ21) | -0.159
TRIM68 (peptide sequence: NLRPNWQLANVVEK, peptide start residue: 68) (UniProt Q6AZZ1) | 0.863
ZMYM4 (peptide sequence: LDKPHKDLDSR, peptide start residue: 183) (UniProt Q5VZL5) | 0.569
FBXO46 (peptide sequence: VAFFVAHQCGGGSR, peptide start residue: 101) (UniProt Q6PJ61) | 0.319
ANKRD12 (peptide sequence: KENEPEAEKTHLFAK, peptide start residue: 387) (UniProt Q6UB98) | 0.797
CORO6 (peptide sequence: CEPIIMTVPR, peptide start residue: 343) (UniProt Q6QEF8) | 0.11
NCBP2AS2 (peptide sequence: LLAALLHSPQLVER, peptide start residue: 6) (UniProt Q69YL0) | 0.169
RRAGB (peptide sequence: LAASFQSMEVR, peptide start residue: 245) (UniProt Q5VZM2) | -0.394

Quoted from the listing for reference:
Target | log2 fold change
ARHGAP11A (peptide sequence: EVNGCSGVNR, peptide start residue: 447) (UniProt Q6P4F7) | -0.894
LARP1 (peptide sequence: LEDFRVDPPMGEEGNHKR, peptide start residue: 1021) (UniProt Q6PKG0) | -0.343
